Measured values as given in PMC10163288.
Some of the results follow.

B1: il2ra_site2_2erj_normal_mot_HHH_b1_08185_000000063_0001_41_55_H_._3a06290c8baa6e8619b69186753886c6_0001_af2_0001_0000100009_0000001_0 (protein)
chain: DETEEALIELLLKAKSPSEIELIIRYIELSLKDTGDPRLEELLELAERLLRGDPEAEELLRELLP
B2: il2ra_site1_1z92_sap_10_mot_7b521abccb2855357a08c3dc921ef1fd_0001_000000147_0001_1_13_H_._HHH_b2_07324_0001_0000100009_0000001_0_0001_af2pred_0001_af2pred (protein)
chain: SSSSDEEEEELEKFVEELAEEFNLSESDKRQLKLMARRALEEGLDPEVIERDLKFAAEHLSSSSS
B3: il2ra_site1_1z92_normal_mot_HHH_b2_08343_af2_000000022_0001_38_52_H_._HEEHE_0007_0001_0000200026_0000001_0_af2pred_0001_af2pred (protein)
chain: SEEETIEKDVEAFAKFAGVPSVEVTSSNGKFSVTLEGQDHAARTAKRHIERTAKLAGLDLEVEIE
B4: il2ra_site2_3nfp_normal_mot_HHH_b2_07840_000000026_0001_18_34_H_._HHH_b1_05957_af2_0001_0000700038_0000001_0 (protein)
chain: SSSSSDVEELEEEIKRLLEEGDPEEAKELLKEVSQLAFERRDHELFALVLDLLELLARLESSSSS
B5: il2ra_site2_2erj_normal_mot_6d5f7cbc25fed124e3eb7f952334b9cf_0001_af2_000000048_0001_1_13_H_._HHH_b2_06289_af2_0001_0000400011_0000001_1 (protein)
chain: SSSSSDAAEIAREAFEKAREAFKNGDDEEAEEILEEAIELVHELNDEAAELALRALLRYLSSSSS
B6: il2ra_site2_3nfp_sap_12_mot_HHH_b2_07129_000000128_0001_19_36_H_._HHH_b2_01945_0001_0000500022_0000001_0_0001 (protein)
chain: SSSSDKRERYLRAALEAIRRAIEEGDEEAARRLLETVKAAAEDANDEEIQRLVEELEEELRSSSS
B7: il2ra_site1_1z92_sap_12_mot_HHH_b1_08139_000000022_0001_43_56_H_._HHH_b2_05798_af2_0001_0000300023_0000001_0_0001_af2pred_0001_af2pred (protein)
chain: SSSSDARKEALELFERANEAVKNGNPEEARELLERAEELAEEGGSPSALRSIRAALRQLKSSSSS
B8: il2ra_site1_1z92_sap_12_mot_HHH_b2_05238_af2_000000252_0001_38_55_H_._HHH_b2_00948_0001_0000400025_0000001_0_0001_af2pred_0001_af2pred (protein)
chain: SSSSSSIEEVSRFLFEQLKRKLELGNERAVRRISKIAREVAELSKDEELEELVEEAERFLSSSSS
B9: il2ra_site1_2b5i_sap_10_mot_HHH_b1_01495_af2_000000272_0001_42_56_H_._HHH_b1_06534_0001_0000200011_0000001_0_0001_af2pred_dldesign_0_af2pred (protein)
chain: SSSSSPEAEKIYEEAKKKAEELKKAGKPREALKVLEEAYKEVSKLDDDELEDKLHELAKEISSSS
B10: il2ra_site1_3nfp_normal_mot_HHH_b2_08362_000000025_0001_23_39_H_._0bad3e1dd0b580ac51794e340135530b_0001_0001_0000200035_0000001_0_af2pred_0001_af2pred (protein)
chain: DESRELKEAARLLPPELNRELQRALHLLIKLGDNELLRKLVELALLLAQGDPEAEEEFEEVIRIP
B11: il2ra_site1_3nfp_sap_8_mot_d8099cd8ef6a59b9c03de2010570d688_0001_af2_000000259_0001_37_51_H_._HHH_b2_05910_0001_0000100005_0000001_0_0001 (protein)
chain: SAEEFVKRAKELVPPELQELLERALELALKRQDPKLARLLIKAVAAIQQGDPEKAEEVLKELEER
B12: il2ra_site1_3nfp_normal_mot_HHH_b2_02886_000000287_0001_1_17_H_._ac5a625a7d57d61210602084a13af12d_0001_0001_0000300032_0000001_0_af2pred_0001_af2pred_1_swapped (protein)
chain: TEELTEEILELLRKDPLEALRLFKELLRKKGIPPEEAKKLAEEVARLAAKLPPEELEEFIRELLR
B13: il2ra_site2_2erj_sap_20_mot_HHH_b2_00789_000000198_0001_40_54_H_._HHH_b2_06681_0001_0000100009_0000001_0_0001 (protein)
chain: SSSSDEEIERVSELLREAVHLSQNGNPEEAERVLEEALRIAEESGDPELREAVRLMLEFLSSSSS
B14: il2ra_site1_3nfp_sap_8_mot_HHH_b1_04964_af2_000000227_0001_40_57_H_._81d5ae1f4baf8c7fe012e9a1203c0b55_0001_0001_0000600026_0000001_0_0001 (protein)
chain: SSSSNAAERWTEEAERLAKELGDEELVEELRELLEEAVKKGDMEVARELIKVIAKVQLKARSSSS
B15: il2ra_site1_1z92_sap_25_mot_9bc32e39fd96e64286323717145257bc_0001_000000091_0001_37_51_H_._25e4e8523bb898988f824d7176892a6f_0001_0001_0000300034_0000001_0_0001 (protein)
chain: SVEEIEEEAKERNDPLLFEAAHDLAVALKLGIPPENVEKALRRIAKRRNDPELEEAVELAIRLVR
B16: il2ra_site1_2b5i_sap_12_mot_HHH_b2_08159_000000245_0001_1_21_H_._HHH_b2_07085_af2_0001_0000200012_0000001_0_0001_af2pred_dldesign_0_af2pred (protein)
chain: SSSSSSPKLKEIERLIEEAKKEKNLRKALELLEKAYKLAGEIDDDELLDEIEKLAKELLSSSSSS
B17: il2ra_site2_2erj_sap_16_mot_HHH_b1_01799_af2_000000125_0001_1_17_H_._HHH_b2_07914_0001_0000100001_0000001_0_0001_af2pred_0001_1_af2pred_swapped (protein)
chain: SSSSDEEIEEIIERLVKEYNLSEEDKKYLQASARLAEEAGANDELIRRLLERQARWAREGSSSSS
B18: il2ra_site2_3nfp_normal_mot_HHH_b2_03816_000000163_0001_40_54_H_._d2b7c2924102c02e5b5e195002b33380_0001_1_0001_0000400033_0000001_0 (protein)
chain: SEEEIRQAIELARELGDPALELLLHSLLYQAKKDPEIEKEAEEVAELVLSGDPDKAFELAARLHH
B19: il2ra_site2_3nfp_sap_27_mot_HHH_b1_04032_000000208_0001_43_56_H_._69a32af0339682088b0ab7bc0c544914_0001_1_0001_0000200006_0000001_0_0001_af2pred_0001_1_af2pred_ … (protein)
chain: SSSSSSEEFEEILKKALRLARELGDPEAFLRILELAERYLKEGDPRIEEELRKLLEELERSSSSS

The binders below were run against il2ra, P01589 (assay: yeast display titration).

Apparent Kd, inactive:
B1 no binding seen
B2 no binding seen
B3 no binding seen
B4 no binding seen
B5 no binding seen
B6 no binding seen
B7 no binding seen
B8 no binding seen
B9 no binding seen
B10 no binding seen
B11 no binding seen
B12 no binding seen
B13 no binding seen
B14 no binding seen
B15 no binding seen
B16 no binding seen
B17 no binding seen
B18 no binding seen
B19 no binding seen

Random excerpt: 2 entries already listed, in no set order.
Apparent Kd, inactive:
B16 no binding seen
B6 no binding seen
